# Test results: PubChem BioAssay AID595 (National Center for Advancing Translational Sciences (NCATS), 2007)
# The campaign covered roughly 71,000 compounds. About 310 (0.44%) were called active. The shares of active, inactive and inconclusive entries below differ from those in the screen. Calls follow the shape of the dose curve; as a rule, active = well fitted curve in either direction with a large enough effect; inconclusive = small, poorly fitted or top-dose-only effect, or another doubt; inactive = flat fitted curve, though single readings scatter. Where the call is inconclusive, the potency comes from a doubtful curve fit. More than one record can exist for a structure, and the calls need not agree.
# Test system: Hsp90 C-terminal peptide / TPR2A (Hop) interaction, human
# Test: qHTS Assay for Disrupters of an Hsp90 Co-Chaperone Interaction
# Conditions: AlphaScreen TPR2A-His6 binding biotin-Hsp90 C-terminal peptide; activity change, negative = inhibition: at 57 µM (top of the series) unless noted
# % is scaled to controls: 0 for no effect and ±100 for the full control effect; potency is read from the fitted curve at half-maximal effect.
SMILES,"activity change, negative = inhibition",Potency
CCc1nc2oc3ccccc3c(=O)c2c(=O)n1Cc1ccc(OC)cc1,inconclusive: 41%,
CCCCCCCCCCCC1=C(O)C(=O)C=C(O)C1=O,inconclusive: 33.8%,
COc1ccc(NC(=O)Nc2nnc(N3CCCCC3C)s2)cc1OC (configuration not stated),inconclusive: 45.6% [at 2.3 µM],
COc1cc2c(cc1NCc1ccccn1)oc1ccccc12,,"inconclusive: 25.1 µM [inhibitor, partial curve]"
CCCc1cc(=O)[nH]c(SC(CC)C(=O)Nc2ccccc2C#N)n1 (configuration not stated),inconclusive: 26.1%,
Cc1cc(N2CCN(Cc3ccc4c(c3)OCO4)CC2)n2ncnc2n1,inconclusive: 47.8%,
COc1cccc2c1C(=N)c1c(O)c3c(c(O)c1C2=O)C[C@](O)(C(C)=O)C[C@@H]3O[C@H]1C[C@H](N)[C@@H](O)[C@H](C)O1,inactive: -27.5% [at 11 µM],
COC(=O)c1ccccc1NC(=O)C(C)Oc1ccccc1 (configuration not stated),,"inconclusive: 25.1 µM [activator, single point]"
Cc1nonc1NC(=O)CSc1nnc(-c2ccoc2C)n1C,inconclusive: 45.7%,
COc1cccc(-c2cc(C(=O)N3CCCCC3C)no2)c1 (configuration not stated),inconclusive: 57.5%,
COC(=O)c1ccc(NC(=O)Cn2nc(SC)n(N)c2=S)cc1,inconclusive: 62.4%,
CCOc1ccccc1O[C@@H](c1ccccc1)[C@@H]1CNCCO1,inconclusive: 51%,
c1ccc(-c2nc(N3CCCCCC3)nc(-n3ccnc3)n2)cc1,inconclusive: 50.6%,
Nc1ccccc1N=Nc1c(S(=O)(=O)O)cc2cc(S(=O)(=O)O)cc(O)c2c1O,,"inconclusive: 3.16 µM [inhibitor, partial curve]"
CCCCCNC(=O)C(C#N)c1nc2ccccc2nc1N1CCCC1 (configuration not stated),inactive: 0.182%,
CCCC(=O)N1CCN(c2ccc(NC(=O)c3ccccc3)cc2)CC1,inconclusive: 49.2%,
COCCn1c(N)c(C(=O)OCc2ccccc2)c2nc3ccccc3nc21,,"inconclusive: 25.1 µM [activator, single point]"
CCOC(=O)C1=C(C)OC(N)=C(C#N)C1c1c(C)nn(-c2ccccc2)c1Cl (configuration not stated),inconclusive: 37.7%,
Cc1ccc(-n2ncc3c(=O)n(CC(=O)N4CCCCCC4)cnc32)cc1,inconclusive: 36.2%,
O=C(Nc1ccc(N2CCOCC2)cc1)Nc1ccc2nc(-c3ccco3)c(-c3ccco3)nc2c1,,"inconclusive: 20 µM [inhibitor, partial curve]"
N#Cc1nc(COc2ccccc2Cl)oc1N1CCCCCC1,,"inconclusive: 5.01 µM [inhibitor, partial curve]"

SMILES,"activity change, negative = inhibition",Potency
CN1C=CC=C/C1=C1\SC(=S)N(C2CCCCC2)C1=O,,"inconclusive: 3.16 µM [inhibitor, partial curve]"
O=C1c2ccccc2NC2CCCCCN12 (configuration not stated),inactive: -5.51%,
NS(=O)(=O)c1ccc(N=Nc2nc3[nH]c(=O)[nH]c(=O)c3[nH]2)cc1,inactive: -5.51% [at 11 µM],
CCCCCCS(=O)Cc1ccccc1 (configuration not stated),inactive: -1.38%,
C1=CC2c3ccccc3NC(c3ccncc3)C2C1 (configuration not stated),,"inconclusive: 25.1 µM [inhibitor, partial curve]"
Cc1cc(NC(=O)CSc2nnc(-c3ccc4c(c3)OCCO4)o2)no1,,"inconclusive: 15.8 µM [inhibitor, partial curve]"
Cc1cccc(-c2nnc(NC(=O)c3ccc(Cl)cc3)o2)c1,inactive: 3.48%,
c1cc2c3c(c1)c1c(n3CCNC2)CCCC1,inactive: -23.9%,
Cn1ccnc1SCC(=O)Nc1ccc2ccccc2c1,inactive: -12.6%,
CC(C)CCNC(=O)c1cnn2c(C(F)(F)F)cc(-c3ccco3)nc12,inactive: 0.325%,
O=C(Oc1ccccc1)c1cccc2cccnc12,,"inconclusive: 20 µM [inhibitor, single point]"
O=C(Nc1ccccc1C(=O)NCc1ccco1)c1ccccc1,inactive: -5.21%,
CC(C)c1nnc(NC(=O)CCN2C(=O)c3ccccc3C2=O)s1,inconclusive: 44.2%,
O=C(CSc1nc2ccccc2s1)NC(=O)NCc1ccco1,inactive: -8.98%,
CCCOC(=O)Nc1ccccc1C(N)=O,inactive: -3.39%,
CC(Sc1nnnn1-c1ccccc1)C(=O)Nc1ccc(Cl)cn1 (configuration not stated),inconclusive: 61%,
COc1ccc(Oc2ncc3nc(-c4cccs4)c(=O)n(Cc4cccc(OC)c4)c3n2)cc1,,"inconclusive: 12.6 µM [activator, partial curve]"
Cc1nc2cnc(Nc3ccccc3)nc2n(CCC#N)c1=O,inactive: -0.716%,
Cc1cc(Nc2ccc(N=Nc3ccc(O)c4ncccc34)cc2)nc(C)n1,,"inconclusive: 3.98 µM [inhibitor, single point]"
COc1cccc(-c2cc3nc(-c4ccccc4)cc(N4CCC5(CC4)OCCO5)n3n2)c1,,active: 20 µM [activator]
O=C(CSc1nnc(Cc2ccccc2)n1Cc1ccco1)NC1CCCC1,inactive: -1.8%,

SMILES,"activity change, negative = inhibition",Potency
COc1ccc(-c2cc(C(=O)Nc3c(C)nn(Cc4ccccc4Cl)c3C)no2)cc1,inconclusive: 51%,
COc1ccccc1OCCSc1nnc(C)n1-c1ccccc1,inconclusive: 42.2%,
CCCN(CCc1ccccc1)[C@H]1CCc2c(O)cccc2C1,,"inconclusive: 31.6 µM [inhibitor, single point]"
[O-][N+]1=c2ccc(Nc3ccccc3)cc2=NC12CCCCC2,,"inconclusive: 15.8 µM [inhibitor, single point]"
CC(C)=CCC/C(C)=C/CC/C(C)=C/CSc1ccccc1C(=O)O,inactive: -2.46%,
COc1ccc(Cn2c(C)nc3oc4cc(OC)ccc4c(=O)c3c2=O)cc1,inconclusive: 43.4%,
CC(=O)c1cc(C#N)c(SCC(=O)OC(C)C)nc1C,inconclusive: 41.3%,
COc1ccc(NC(=O)c2ccc(-c3ccc(-c4noc(C)n4)cc3C)cc2)cc1N1CCN(C)CC1,,"inconclusive: 31.6 µM [inhibitor, partial curve]"
Cc1cccc(CC(=O)Nc2cc(=O)n(C)c(=O)n2C)c1,inconclusive: 44.1%,
CCCC12CN3CC(C)(CN(C1)C3c1ccc(OC)cc1)C2=O (configuration not stated),inactive: 3.36%,
O=C(NC(NCc1ccccn1)(C(F)(F)F)C(F)(F)F)c1ccco1,,"inconclusive: 31.6 µM [inhibitor, single point]"
Oc1cc(O)c2c(c1)O[C@@H](c1ccc(O)c(O)c1)[C@H](O[C@@]1(c3cc(O)c(O)c(O)c3)Oc3cc(O)cc(O)c3[C@H](O)[C@@H]1O)C2,,"inconclusive: 3.16 µM [inhibitor, partial curve]"
CCOc1ccc(-n2c(SCC(=O)Nc3ccc(OC)cc3OC)nc3c(c2=O)SCC3)cc1,,"inconclusive: 39.8 µM [inhibitor, single point]"
Cn1cccc1C(=O)OCC(=O)Nc1cc(C(C)(C)C)nn1-c1ccccc1,inconclusive: 48.4%,
C=CCn1c(SCC(=O)c2ccccc2)nnc1-c1cc2ccccc2o1,inactive: 0.366%,
Cc1nnc2sc(-c3ccc(NC(=O)c4ccc(-c5ccc(Br)cc5)o4)cc3)nn12,,"inconclusive: 10 µM [inhibitor, partial curve]"
CC(C)(C)C1CCc2onc(C(=O)NCc3ccc(F)cc3)c2C1 (configuration not stated),inactive: 11.8%,
O=C(CCC(=O)c1cccs1)Nc1ccccc1F,inconclusive: 41.4%,
CC(C)Cn1c(=O)c2c(nc3n2CCCN3CCc2ccccc2)n(C)c1=O,inconclusive: 15%,
N#Cc1nc(N)nc(N(c2ccccc2)c2ccccc2)n1,,"inconclusive: 31.6 µM [inhibitor, single point]"
CNC(=O)[C@@H]1O[C@@H](n2cnc3c(N)ncnc32)[C@@H](O)[C@H]1O,inconclusive: 65.6%,

# An excerpt of these results, with bars between the fields.
SMILES | activity change, negative = inhibition | Potency
COCCn1c(N)c(C(=O)OCc2ccccc2)c2nc3ccccc3nc21 |  | inconclusive: 25.1 µM [activator, single point]
CCOC(=O)C1=C(C)OC(N)=C(C#N)C1c1c(C)nn(-c2ccccc2)c1Cl (configuration not stated) | inconclusive: 37.7% | 
Cc1ccc(-n2ncc3c(=O)n(CC(=O)N4CCCCCC4)cnc32)cc1 | inconclusive: 36.2% | 
O=C(Nc1ccc(N2CCOCC2)cc1)Nc1ccc2nc(-c3ccco3)c(-c3ccco3)nc2c1 |  | inconclusive: 20 µM [inhibitor, partial curve]
N#Cc1nc(COc2ccccc2Cl)oc1N1CCCCCC1 |  | inconclusive: 5.01 µM [inhibitor, partial curve]
CN1C=CC=C/C1=C1\SC(=S)N(C2CCCCC2)C1=O |  | inconclusive: 3.16 µM [inhibitor, partial curve]
O=C1c2ccccc2NC2CCCCCN12 (configuration not stated) | inactive: -5.51% | 

# (further entries)

SMILES,"activity change, negative = inhibition",Potency
COc1ccc(OC)c(CC(NC(C)=O)C(=O)NC2CCN(c3nc(C)cc(C)c3C#N)CC2)c1 (configuration not stated),inconclusive: 50%,
COC(=O)C1=C(C)NC(C)=C(C(=O)OCCSc2ccccc2)[C@@H]1C,,active: 39.8 µM [activator]
COc1ccc(C(C(=O)NC2CCCCC2)N2CCC3(CC2)OCCO3)cc1 (configuration not stated),inconclusive: 50.2%,
C=CCc1ccc(OCC(O)CN2CCCCC2C)c(OC)c1 (configuration not stated),inconclusive: 33.4%,
Cc1cc(Cl)ccc1OCCCC(=O)N1CCN(C(=O)c2ccco2)CC1,inactive: -2.67%,
COc1ccc2[nH]c(=O)c(CN(C3CCCCC3)C(c3nnnn3Cc3ccco3)C(C)C)cc2c1 (configuration not stated),inactive: -19.9%,
O=C(CSc1nnc(C2COc3ccccc3O2)o1)Nc1nccs1 (configuration not stated),,active: 12.6 µM
COc1ccc2cccc(N3CCN(CCNC(=O)c4ccc(F)cc4)CC3)c2c1,inactive: -0.102%,
O=C(CSc1ncccc1C(=O)O)NCc1ccc(F)cc1,inconclusive: 45.1%,
O=C(NC1=NCCS1)c1cccc(NC(=O)c2ccco2)c1,inconclusive: 42.7%,
Cc1cc(C)c(NC(=O)NC(=O)c2cccc(F)c2)c(C)n1,inconclusive: 55.5%,
CCNc1ncc2nc(-c3cccs3)c(=O)n(-c3ccccc3)c2n1,inactive: -6.59%,
Cc1cc(NCCCn2ccnc2)n2nc(-c3ccc(F)cc3)cc2n1,,"inconclusive: 25.1 µM [inhibitor, partial curve]"
O=C(Nc1nc(-c2ccc(Cl)s2)cs1)c1ccncc1,inactive: -2.33%,
O=C(Nc1nc(-c2cccs2)cs1)c1ccc(Cl)s1,,"inconclusive: 25.1 µM [activator, single point]"
COc1ccc(NC(=O)c2c(OC)cccc2OC)c(OC)c1,,"inconclusive: 20 µM [inhibitor, partial curve]"
CC(C)c1nnc(NC(=O)CCC(=O)NCc2ccc3c(c2)OCO3)s1,inactive: -3.47%,
O=c1c(O)c(-c2ccc(O)c(O)c2)oc2cc(O)cc(O)c12,,active: 12.6 µM
COc1ccc(C(NC(C)=O)c2ccc3cccnc3c2O)c(OC)c1 (configuration not stated),,active: 15.8 µM
